Paper PMC6675892, “Hepatitis B Virus X Protein Function Requires Zinc Binding” (Journal of Virology, 2019)
These are yes or no findings as the source states them, for the method shown.

Chains of the proteins cited; added tags and fusions are not shown. Residues count along the entry.
UniProt P11207: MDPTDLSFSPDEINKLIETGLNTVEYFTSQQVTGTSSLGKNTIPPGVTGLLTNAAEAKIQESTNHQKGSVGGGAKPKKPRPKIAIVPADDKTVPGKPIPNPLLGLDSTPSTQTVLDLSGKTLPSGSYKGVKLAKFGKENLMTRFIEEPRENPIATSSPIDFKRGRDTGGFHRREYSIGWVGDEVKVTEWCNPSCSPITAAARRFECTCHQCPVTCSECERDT
UniProt Q16531: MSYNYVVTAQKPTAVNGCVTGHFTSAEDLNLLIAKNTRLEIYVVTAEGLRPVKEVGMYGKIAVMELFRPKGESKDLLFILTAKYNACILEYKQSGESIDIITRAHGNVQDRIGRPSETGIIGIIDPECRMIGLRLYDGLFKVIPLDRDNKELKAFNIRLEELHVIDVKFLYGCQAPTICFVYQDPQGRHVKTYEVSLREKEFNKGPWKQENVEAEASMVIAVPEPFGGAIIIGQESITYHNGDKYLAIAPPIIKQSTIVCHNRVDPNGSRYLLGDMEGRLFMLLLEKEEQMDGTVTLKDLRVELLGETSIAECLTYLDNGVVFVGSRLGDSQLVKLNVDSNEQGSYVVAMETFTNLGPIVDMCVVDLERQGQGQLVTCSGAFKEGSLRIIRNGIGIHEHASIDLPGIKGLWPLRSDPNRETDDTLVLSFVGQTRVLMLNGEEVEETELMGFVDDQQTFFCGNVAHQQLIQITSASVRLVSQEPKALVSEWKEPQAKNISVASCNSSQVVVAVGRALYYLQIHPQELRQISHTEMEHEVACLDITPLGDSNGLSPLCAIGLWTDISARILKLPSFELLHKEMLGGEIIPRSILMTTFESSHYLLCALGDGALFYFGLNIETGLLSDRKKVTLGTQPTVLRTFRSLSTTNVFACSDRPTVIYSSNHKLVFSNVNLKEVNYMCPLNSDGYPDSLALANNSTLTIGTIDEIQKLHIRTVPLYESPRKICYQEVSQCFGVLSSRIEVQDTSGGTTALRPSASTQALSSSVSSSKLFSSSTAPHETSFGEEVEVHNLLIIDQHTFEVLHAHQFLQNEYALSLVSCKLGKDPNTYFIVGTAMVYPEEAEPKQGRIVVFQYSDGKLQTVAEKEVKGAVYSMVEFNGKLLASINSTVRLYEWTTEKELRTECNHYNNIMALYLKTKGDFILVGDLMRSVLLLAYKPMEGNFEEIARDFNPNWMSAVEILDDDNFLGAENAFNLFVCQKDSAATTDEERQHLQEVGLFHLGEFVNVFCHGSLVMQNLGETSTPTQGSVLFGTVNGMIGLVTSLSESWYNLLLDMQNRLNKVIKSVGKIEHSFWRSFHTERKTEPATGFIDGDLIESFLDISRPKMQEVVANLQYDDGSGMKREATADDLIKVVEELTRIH
UniProt P02769, residues 25-607: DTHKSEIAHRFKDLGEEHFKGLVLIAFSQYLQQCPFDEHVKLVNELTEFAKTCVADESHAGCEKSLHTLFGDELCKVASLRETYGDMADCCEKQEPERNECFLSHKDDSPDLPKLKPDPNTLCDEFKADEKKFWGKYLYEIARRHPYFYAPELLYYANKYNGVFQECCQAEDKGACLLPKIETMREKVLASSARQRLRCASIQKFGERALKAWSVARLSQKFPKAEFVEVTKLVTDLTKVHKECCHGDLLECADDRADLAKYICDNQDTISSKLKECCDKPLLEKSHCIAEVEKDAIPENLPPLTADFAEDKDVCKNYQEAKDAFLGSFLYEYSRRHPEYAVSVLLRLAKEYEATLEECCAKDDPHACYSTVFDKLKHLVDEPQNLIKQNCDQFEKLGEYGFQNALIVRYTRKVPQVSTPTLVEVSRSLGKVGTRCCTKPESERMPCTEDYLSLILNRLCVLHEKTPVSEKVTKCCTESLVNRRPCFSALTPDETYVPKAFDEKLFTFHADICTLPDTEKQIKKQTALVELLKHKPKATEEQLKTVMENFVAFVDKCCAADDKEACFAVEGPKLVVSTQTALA

How the values were obtained:
[1] = biological target: SV5-V (paramyxovirus SV5) (UniProt P11207); experiment: AUC; sedimentation velocity at 20 C, absorbance at 280 nm, c(s) distribution (SEDFIT), each protein in its final storage buffer; both purified
GST-DDB1 [2] = biological target: T1, GST-DDB1 (UniProt Q16531 1-1140); experiment: AlphaScreen or HTRF; TR-FRET competition; 3 nM coexpressed His-HBx:GST-DDB1 complex preincubated with increasing untagged competitor 1 h at room temperature; Eu-cryptate anti-His and d2 anti-GST antibodies; 20 mM HEPES pH 7.2, 50 mM NaCl, 0.1 mg/ml BSA, 0.01% Brij-35, 0.5 mM TCEP; both purified
T1 construct: also called glutathione S-transferase (GST)-DDB1; not shown: GST, N-terminal, kept

GST-DDB1 [3] = biological target: T1, GST-DDB1; experiment: AlphaScreen or HTRF; TR-FRET competition; 5 nM His-HBx and 5 nM GST-DDB1 expressed separately, preincubated with increasing untagged competitor 30 min at room temperature; Eu-cryptate anti-His and d2 anti-GST antibodies; 25 mM HEPES pH 7.2, 400 mM NaCl, 0.1 mg/ml BSA, 0.01% Brij-35, 0.5 mM TCEP; both purified
DDB1 = DDB1 (UniProt Q16531); experiment: AUC; sedimentation velocity at 20 C, absorbance at 280 nm, c(s) distribution (SEDFIT), each protein in its final storage buffer; both purified

SV5-V (from UniProt P11207 1-222)
binding [1]: no binding

bovine serum albumin (from UniProt P02769 25-607)
binding (GST-DDB1 [2]): no binding (tested: >100,000 nM)
binding (GST-DDB1 [3]): no binding (tested: >3,000 nM)

DDB1 (from UniProt Q16531 1-1140) (other; other documents disagree on this pair)
binding (DDB1): no binding
